Patent US20040234610A1, “Medical device and method for inhalation of aerosolized drug with heliox” (priority 2001, published 2004)
At least one structure is not confirmed: it was looked up by name or label, or the drawing left a doubt.

Experiment: Nebulized particle size distribution by Anderson Cascade Impactor, Y design, drug suspension and different heliox flow rates
Format: physicochemical
Protocol: Additional tests were performed with the ACI described in Example 3 in order to assess the device's ability to nebulize a liquid drug suspension and to assess various heliox flow rate combinations. […]

[1] = budesonide inhalation suspension, Y design, heliox 18 L/min nebulizer, 18 L/min side port
[2] = budesonide suspension, 18-18 lpm heliox (nebulizer-side port)

Q: Which results are given for CCCC1O[C@@H]2C[C@H]3[C@@H]4CCC5=CC(=O)C=C[C@]5(C)[C@H]4[C@@H](O)C[C@]3(C)[C@]2(C(=O)CO)O1 (some centres unmarked) [Budesonide, budesonide]?
A: Fraction, Adapter [1]: 0.045; Fraction, Collar [1]: 0.000; Fraction, Filter (cut size <0.40 μm) [1]: 0.031; Fraction, Stage 0 (cut size 9.00 μm, midpt 10.70 μm) [1]: 0.007; Fraction, Stage 1 (cut size 5.80 μm, midpt 7.22 μm) [1]: 0.007; Fraction, Stage 2 (cut size 4.70 μm, midpt 5.22 μm) [1]: 0.000; Fraction, Stage 3 (cut size 3.30 μm, midpt 3.94 μm) [1]: 0.000; Fraction, Stage 4 (cut size 2.10 μm, midpt 2.63 μm) [1]: 0.101; Fraction, Stage 5 (cut size 1.10 μm, midpt 1.52 μm) [1]: 0.507; Fraction, Stage 6 (cut size 0.70 μm, midpt 0.88 μm) [1]: 0.170; Fraction, Stage 7 (cut size 0.40 μm, midpt 0.53 μm) [1]: 0.061; Fraction, Tee Piece [1]: 0.071; Fraction, Throat (USP) (cut size >9.00 μm, midpt 24.49 μm) [1]: 0.000; 0.7 ≦ Mean Fraction < 5.8 μm [2]: 0.778; Mean Fraction < 0.7 μm [2]: 0.092; Mean Fraction at Midpoint = 1.52 μm [2]: 0.507; Mean Fraction ≧ 5.8 μm [2]: 0.130
